Data as given in article PMC4745748.
No constants are given. Whether binding was seen depends on the method and setting. Binding seen in cells or lysates may run through a third protein. Binding can be weak; no strength is given.

Molecular target: T1, S100P (human) (UniProt P25815)
T1 sequence: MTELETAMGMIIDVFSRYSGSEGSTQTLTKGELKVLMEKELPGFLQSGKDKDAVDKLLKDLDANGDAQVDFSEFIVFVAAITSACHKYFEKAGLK
Assay: co-IP; cell lysates (200 μg of total protein, M-PER) incubated with 2 μg of isotype or anti-DDK antibodies overnight, then protein A-agarose beads 2 h at 4°C; blots for DDK and integrin α7

integrin α7 (human (endogenous in CL1-0)) (receptor)
binding: binds
